The list shows a part of the results.
Legend:
Assay in all cases: EMSA with sequencing
Settings in all cases: 10 mM Tris-Cl pH 7.5, 50 mM NaCl, 1 mM DTT, 0.25 mg/ml BSA, 2 mM MgCl2, 0.025% Nonidet P-40, 5% glycerol; 28 nM nucleosome library; 10 min on ice then 30 min …; high values mean tight binding; double strand, one strand shown
KLF4 + histone octamer = system: KLF4 + histone octamer
OCT4 + histone octamer = system: OCT4 + histone octamer
SOX2 + histone octamer = system: SOX2 + histone octamer
[1] = system: c-MYC + MAX + histone octamer

Sequence | binding signal (log2 relative supershift) (KLF4 + histone octamer) | binding signal (log2 relative supershift) (OCT4 + histone octamer) | binding signal (log2 relative supershift) (SOX2 + histone octamer) | binding signal (log2 relative supershift) [1]
GATGGACCCTATACGCGGCTAGTAGAGACGGGTTTCACAGTGTTAGCCAGTATGGTCTCGATCTCCTGACCGACCTTGTGATCCACCCACCTCGGCCTCCCAAATTGCTGCAATTACAGGCATGAGCCACCACGCCTGGCTGGGGCAGGTAACAATTATAAGTTATGCTCAACTAAACCTTTAGTTTTAAGATGTTTTATATTCTGTATATGCCAGTCGGATAGTGTTCC | 0.794 | 0.231 | 0.942 | 0.625
GATGGACCCTATACGCGGCGAATTGTGCACACACACACACACACACACACCACCTCCCACCCAATTCTTATGCTGAAGTCCTAACTCCCAGTATCCTGGAATGTGACCTTATTGAAATGGGTCATTGCAGATGCAATTAGTTAAGATGAAGTCATACTGGAATAGGTTGGGCCTCTAATTTGAACAACTAGTGTCCTTATAAAAAGGGGATGCCAGTCGGATAGTGTTCC | 2.43 | 0.252 | 1.58 | 0.149
GATGGACCCTATACGCGGCGAGGGTGGATAAGAAACACACAGGTGGGACGGTTAACAACATCAGGAGCTGTGGCTTTATGGAAATTTATGTAAGCATGATGAATTGCACACAGCCATTTGTCTCTATTCCCTCCTAACCCTCCATGAAAGTGACAGGAAAGGGACAAAAAGACATTGGCGCACAAAAGCGAAGAGAACATGAAAGGAGTCTGCCAGTCGGATAGTGTTCC | 2.02 | 0.215 | 1.34 | 0.31
GATGGACCCTATACGCGGCTATTTGATCATAGAACAGCCTCCCTTGTCATTGTTTTGTGTTGGAAAACCCACTGGGGTGCCGTGGAGCACCATTTGGGAGGCACCATTGAAACAAGCAGGATTTCTTTTCCCATGAGGCCTGGTACCTATTCCTTCAATGTGCTGTATTTCCATAAATCATATGTAGGTGGCTGCCTGCTTTGTCTGTGGTGCCAGTCGGATAGTGTTCC | 2.15 | 1.81 | 1.98 | 0.62
GATGGACCCTATACGCGGCTTTTGATAGTCTGATAGGGCTCTGGCGGATGGTAACTCCCATCTTACCATGTTGCAACTTGCAAGCTTTTGTAGTGCTGATGCTTCTGTTAGACTGGCCCAATCTTGCTTGTCATTAAATTTCCAGTTTACAGCTTGGCATGTCTACACCCTCAGAACATGTTTGTCAAATGAATGAATGAAACAAGGAGATGCCAGTCGGATAGTGTTCC | 2.29 | 0.00532 | 1.64 | 0.47
GATGGACCCTATACGCGGCTGTAAGATTTAAAAGCTTCCCAGGTGATTCTAATGTATAGCCAGGCTTAAGAACCTGCCCCACTCACCAATACAGAGCAGTTGTTCTCAAACTTTAATGAATGTAGGCATCACCTGCATATGAATGCAGACACCCACAGAGGTTATTATTCAGCAGGTCAAAGGTGGGCTAGAAAACTCCTTTTTAAATGATGCCAGTCGGATAGTGTTCC | 2.06 | 0.0954 | 1.34 | 0.0603
GATGGACCCTATACGCGGCCCTCTTTTACTTCATATAAACTTTCAATTGAAGTGTACATACCAAAAAGCACACAAATCTAATATACAGTTCAATGGAATGACACACAGTGAACACACTTGCATAACCAGGGCCCCAGCTCGAGGAACTGAACATTAGCAGCATCCCAGAAGGCCCCCTGTGCTCCCTTCCAGTCACTAACAACTGCCCTATGCCAGTCGGATAGTGTTCC | 1.58 | 0.223 | 0.993 | 0.178
GATGGACCCTATACGCGGCAATCAACATCTAAAAGAGTATTTCCGTGTGACCCATGCACGGTTCATTTGAGCATTCACAGGGTGTTCCCCACAGCCTGGTACATTACAGCTTTTGTCATAACATGAACAGCAATCGGCTCAAAACACTGCCCATTGTGATGCTGATGATGAGACCTCCCTAATGTTCTAAAAGATTGTTTGGTGTAACCATGCCAGTCGGATAGTGTTCC | 2.26 | 0.589 | 1.02 | 0.896
GATGGACCCTATACGCGGCGAGCAGAGTCAAAGGGTTGGGTATTGGCTCCATGCTACAACTTTCCACTAGGCAAAACAGAGCCTCTCCAAATAGCTGCTTGTGATAGACATGATTATCTCAATTGCATAGGATTGTTAACAAGACAAAGGAAATGGTATACCTAATAAGCATTTGATAAGGTGTAGACAGAAATCCTGATTTTGTTGTTATGCCAGTCGGATAGTGTTCC | 2.07 | 0.363 | 1 | 0.15
GATGGACCCTATACGCGGCTCTAGAAGAAACAGCCATTCAGGAAGAGCTTATGAAAGGGGTGGAGAATGCACTGCCTGTGTATGCTGCAAGACCTTTCTGCAGACATTGTGTCTTTGTGAGCTGACTGCAGAGGCCATGTGCATGTGAAATGTATGAGAATGTATGTGTTGCTTATTTCAGATCATGTATGAACCTGTATGAATTGCTGATGCCAGTCGGATAGTGTTCC | 0.642 | 0.349 | 0.9 | 0.0374
GATGGACCCTATACGCGGCCATAGTGTTGTTATAAGGGTTAGACTATCATGCATCATTAGCACCTGGCCTAGTGTGAGCCCATAAATGGAATTCAGTGAATGCTTCTTCTGCCTCCCTTTGTGCTAAGAGATGAGTTGCCTTGCCCAGGTCATCAGCTTATGCATAGCAAAGACAAGGCAGAAACTTTAATGTTTAAACCTGAAAATCCATGCCAGTCGGATAGTGTTCC | 1.18 | 0.231 | 0.856 | 0.176
GATGGACCCTATACGCGGCAAAGCATGATTCTCGCCATCTACACGACGCTCTTCCGATCTAATTTATGTTTGTTAGCGTTATACTATTCTAATTCTTTGTTTCGGTGGTATTGTTTATTTTGTTCCTTTGTGCGTTCAGCTTAATGCCTAACGACACTCGGAGATCGGAAGAGCACACGTGATGAGGTTATTGAACAGCGACTTTACCGGTGCCAGTCGGATAGTGTTCC | 0.4 | 0.282 | 0.628 | 1.04
GATGGACCCTATACGCGGCAGATAAGGAAACTTGCACAGAGGGCTTGCCTAAACATGCCCACAGCTGACTAAGGGCTCACATGTGCACTAGGGGAATGGGGTGGAGCCACAAGAAATTCACACCTTATACAAATAGGGAATCCAGCCCCATTAGCATATATATTCATGCTGCTGATAAAGACATACCCAAGACTGGGAAGCAAAATAGGTTGCCAGTCGGATAGTGTTCC | 1.86 | 0.751 | 0.801 | 0.408
GATGGACCCTATACGCGGCAAAAAATATCCCATGCATCCGCCCTGTGTTCTCTTTCAGATGATAATCCCGCTTCCTTTTTCACTGAGAAAACAGAAGCAATCAGAATAGGCATTGACATACACCAGCTACCACATCTACTGATATATTGGTATGTGTGCCTTGTTCTTAGCAGTCTGGGGCTATGAATGACCTGTTAGCCTCTGAGCTGATGCCAGTCGGATAGTGTTCC | 2.43 | 0.0607 | 0.778 | 0.296
GATGGACCCTATACGCGGCTATTATCCGTTCATTATTGTCATGTTCTTCCTTAAAAGAAGGTGGGGCATCTGCTTGTTGGATTCAGGCAGAGCATGATTTTTAATATGTATATTCTTGGTCTTAAGCCACGAAAGTGTTGTAAATCACCAGCAAACAGCACTAAGTATTATCGTCCTCTAGGCACTGAAAATTTGAAATGAGCTGCTGACTGCCAGTCGGATAGTGTTCC | 0.922 | 0.192 | 1.45 | 0.155
GATGGACCCTATACGCGGCGACATTAGTTATTGACTTCCTGCTATGGAGATAGGTATTTGGCTCTCTCATCCACTGTCCTCCACACTCTTTAGCCACTCAGCAACACAAAGGCCTTTCTGCCCATCCCGCCAGAGTATGTTGTAACATAGCTTTTTGCTAAACTGTATTTAACATTTATGACAATAAGTATTCACATTCGAGCCATGTAGTGCCAGTCGGATAGTGTTCC | 0.0328 | 0.459 | 1.5 | 0.0905
GATGGACCCTATACGCGGCCTTATTCCAGCTGTCATTATTTTAGAGGACTACACATTAACATCTCAGTGATCTAGAACAAATGGAGCAATGTGAGAAACTGTGCTGTATCTTGATCAGTAGTTACCCAACCCAGTGAGTCTGAAAACAACAGATTGCTATCCCTCCCACGTGAGATTCTGATGCAATTGGTCTGTGACAGAGACCAGGAATGCCAGTCGGATAGTGTTCC | 1.12 | 0.373 | 0.563 | 0.225
GATGGACCCTATACGCGGCAAAGCATGATTCTCGCGATCCTGTCTCCTGCTCTGTCAGCAGGGCACTGTACTTGCTGATACCAGGGAATGTTTGTTCTTAAATACCATCATTCCGGACGTGTTTGCCTTGGCCAGTTTTCCATGTACATGCAGAAAGAAGTTTGGACTGATCAATACAGTCCTCTGCCTTGGATCCAGCGACTTTACCGGTGCCAGTCGGATAGTGTTCC | 0.385 | 0.181 | 0.483 | 0.598
GATGGACCCTATACGCGGCTGTGAGAAATTAGAACCCTCATACATTGTTGGTGGGGATGTAAAATGATGCTATCACTTTGGCAAACAGTTTGGCAGCACCTCAAAATGTGAAACATAGAATTAGCATATGACCCAGCAATTCCAGCCCGATGTATCTACCCACAATGCATATGTCCCCACAAAAACCTGTGCATGAATGTTCATAACAGCTGCCAGTCGGATAGTGTTCC | 1.82 | 0.314 | 1.28 | 0.155
GATGGACCCTATACGCGGCGTGAAAATAAAGACGTGATTTTTTTCCCTATCCAAATATATGATCCCTGAATTCTATCCATGAACCCAAGGTTTAGAATGTCTGTTGTGTGATGTGCTCATACCTTAAAAAGGAGTGTGGGGGAGTGGGCGAATGTGCACGTGTGTATGTTCATGCATGTGCATGTGAGTAGAGGGGTGGGGAGAGAGGGATGCCAGTCGGATAGTGTTCC | 1.16 | 0.119 | 1.09 | 0.332
GATGGACCCTATACGCGGCAGAAAGAGGCATATGACTGTTTAGACATTTGAGCTGCATGCAAGGGAAGGGGTGGGTTACTCTGCTATAGAAATGTTCCCTATTTGAATAATAAGACACAACAGGGGGTGGATTATGCAAATTGGCCCCATGCCTTCTGCAACCCCAAAGGATGTAGTTAGTACCCAGAAACCAGTGACAAGAACAATGCCTGCCAGTCGGATAGTGTTCC | 1.39 | 0.347 | 2.13 | 0.493

2 entries picked at random from the list so far:
Sequence | binding signal (log2 relative supershift) (KLF4 + histone octamer) | binding signal (log2 relative supershift) (OCT4 + histone octamer) | binding signal (log2 relative supershift) (SOX2 + histone octamer) | binding signal (log2 relative supershift) [1]
GATGGACCCTATACGCGGCGTGAAAATAAAGACGTGATTTTTTTCCCTATCCAAATATATGATCCCTGAATTCTATCCATGAACCCAAGGTTTAGAATGTCTGTTGTGTGATGTGCTCATACCTTAAAAAGGAGTGTGGGGGAGTGGGCGAATGTGCACGTGTGTATGTTCATGCATGTGCATGTGAGTAGAGGGGTGGGGAGAGAGGGATGCCAGTCGGATAGTGTTCC | 1.16 | 0.119 | 1.09 | 0.332
GATGGACCCTATACGCGGCTATTTGATCATAGAACAGCCTCCCTTGTCATTGTTTTGTGTTGGAAAACCCACTGGGGTGCCGTGGAGCACCATTTGGGAGGCACCATTGAAACAAGCAGGATTTCTTTTCCCATGAGGCCTGGTACCTATTCCTTCAATGTGCTGTATTTCCATAAATCATATGTAGGTGGCTGCCTGCTTTGTCTGTGGTGCCAGTCGGATAGTGTTCC | 2.15 | 1.81 | 1.98 | 0.62
